Values of other authors, collected in patent US12411128B2, “Methods and apparatuses for prediction of mechanism of activity of compounds” (The Regents of the University of California, priority 2017, dated 2025).
Some entries share one result that the patent states for a list of compounds.

Test system: monolayers of hPSC-CMs
Conditions: literature (Dempsey 2016; Guo 2013; Sirenko 2013); cited from earlier work

C[C@@H]1O[C@@H](O[C@H]2C[C@@H](O)[C@]3(CO)[C@H]4[C@H](O)C[C@]5(C)[C@@H](C6=CC(=O)OC6)CC[C@]5(O)[C@@H]4CC[C@]3(O)C2)[C@H](O)[C@H](O)[C@H]1O [Ouabain]
concentration above which monolayers of hPSC-CMs stopped beating: above 3 μM
